According to paper PMC4967927:
These are yes or no findings as the source states them, for the method shown. In cells and extracts the contact can be indirect. Some entries that bind do so weakly or less than the wild type. Each block holds one substance with its values, some of them ahead of it.

Protein sequences, listed by entry. Tags and fused reporters are not part of them. Lines headed by an entry give the natural chain unless they say otherwise; changes in a name come on top. Chains listed by the source or under a name are the forms on record and can include a tag or linker.
UniProt Q925H0: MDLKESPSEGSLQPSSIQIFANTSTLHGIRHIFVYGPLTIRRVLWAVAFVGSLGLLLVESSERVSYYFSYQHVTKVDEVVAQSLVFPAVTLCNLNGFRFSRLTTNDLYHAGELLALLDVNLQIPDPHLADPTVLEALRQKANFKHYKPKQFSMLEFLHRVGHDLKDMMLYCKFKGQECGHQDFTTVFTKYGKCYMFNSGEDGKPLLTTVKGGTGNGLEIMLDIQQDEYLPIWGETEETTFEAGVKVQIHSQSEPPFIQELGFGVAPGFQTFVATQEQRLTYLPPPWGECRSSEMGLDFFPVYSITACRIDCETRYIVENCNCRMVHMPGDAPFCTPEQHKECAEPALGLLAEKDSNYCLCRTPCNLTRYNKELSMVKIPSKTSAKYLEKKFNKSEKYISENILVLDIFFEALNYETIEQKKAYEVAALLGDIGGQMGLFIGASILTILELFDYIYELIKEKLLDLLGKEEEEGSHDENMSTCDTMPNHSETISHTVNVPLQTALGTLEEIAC
HA-tagged ASIC2b (Q925H0-2, form named): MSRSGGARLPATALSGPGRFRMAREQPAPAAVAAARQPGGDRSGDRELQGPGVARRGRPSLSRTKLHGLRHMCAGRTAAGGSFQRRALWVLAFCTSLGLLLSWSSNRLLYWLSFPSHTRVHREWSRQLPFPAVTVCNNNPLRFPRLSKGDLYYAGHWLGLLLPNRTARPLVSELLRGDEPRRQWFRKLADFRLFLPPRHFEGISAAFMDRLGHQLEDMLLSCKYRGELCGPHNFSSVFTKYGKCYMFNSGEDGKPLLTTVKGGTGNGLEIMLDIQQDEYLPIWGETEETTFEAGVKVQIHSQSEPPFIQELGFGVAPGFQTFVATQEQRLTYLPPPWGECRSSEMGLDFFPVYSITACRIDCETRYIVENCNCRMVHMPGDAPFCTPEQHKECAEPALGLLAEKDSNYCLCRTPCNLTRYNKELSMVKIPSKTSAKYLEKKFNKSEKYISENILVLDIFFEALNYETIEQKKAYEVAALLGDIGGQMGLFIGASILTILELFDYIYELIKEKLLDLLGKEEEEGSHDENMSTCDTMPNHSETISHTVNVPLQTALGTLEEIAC

Key:
[1] = molecular target: ASIC2a fused at its C-terminus to a Venus fragment for BiFC (mouse) (UniProt Q925H0); assay: split reporter; Venus-based BiFC (VN173 and VC155) in HEK293T cells co-transfected with the two fusions; fixed after 24 h, confocal microscopy
[2] = molecular target: ASIC2b fused at its C-terminus to a Venus fragment for BiFC (mouse) (UniProt Q925H0); assay: as above
[3] = molecular target: FLAG-tagged ASIC2b (acid-sensing ion channel 2b) (mouse) (UniProt Q925H0); assay: proximity ligation; Duolink PLA on fixed HEK293T cells co-expressing HA-ASIC2a and FLAG-ASIC2b; primary anti-HA (mouse) and anti-FLAG (rabbit) antibodies; signal when the distance is <40 nm
[4] = molecular target: FLAG-tagged ASIC2b (acid-sensing ion channel 2b) (mouse) (UniProt Q925H0); assay: co-IP; HEK293T cells co-expressing HA-ASIC2a and FLAG-ASIC2b; lysis in 20 mM HEPES pH 7.5, 150 mM NaCl, 1% NP-40, 0.1% SDS, 1 mM NaF; immunoprecipitated with anti-FLAG overnight at 4 °C, protein A/G PLUS-agarose, blotted with anti-HA
[5] = molecular target: GFP-tagged 2b-TP (ASIC2b with the TM1 and the proximal post-TM1 domain replaced by those of ASIC2a) (mouse) (UniProt Q925H0); assay: co-IP; HEK293T cells co-transfected with a GFP-tagged and an HA-tagged ASIC2 protein; lysis in 20 mM HEPES pH 7.5, 150 mM NaCl, 1% NP-40, 0.1% SDS, 1 mM NaF; immunoprecipitated with anti-GFP, blotted with anti-HA
[6] = molecular target: GFP-tagged ASIC2a (mouse) (UniProt Q925H0); assay: as above
[7] = molecular target: GFP-tagged Ch3 (ASIC2b with residues 1-129 replaced by 1-85 of ASIC2a) (mouse) (UniProt Q925H0); assay: as above

binding [1]: binds | binding [2]: binds
Substance: ASIC2a fused at its C-terminus to a Venus fragment for BiFC (from UniProt Q925H0-1 1-512)

binding [2]: binds
Substance: ASIC2b fused at its C-terminus to a Venus fragment for BiFC (from UniProt Q925H0-2 1-563)

binding [3]: binds | binding [4]: binds
Substance: HA-tagged ASIC2a (acid-sensing ion channel 2a) (from UniProt Q925H0-1 1-512)

binding [5]: binds | binding [6]: binds | binding [7]: binds
Substance: HA-tagged ASIC2b (from UniProt Q925H0-2 1-563)
